No constants are given. Whether binding was seen depends on the method and setting. Some binding calls cover weakened binding; strength is not graded here. Tags and fused reporters may be left off the sequences shown.

T1: Recombinant truncated human CD2 (human, UniProt P06729 25-209, limits assumed)
T1 construct: Bought; also called LFA2
T1 sequence (looked up): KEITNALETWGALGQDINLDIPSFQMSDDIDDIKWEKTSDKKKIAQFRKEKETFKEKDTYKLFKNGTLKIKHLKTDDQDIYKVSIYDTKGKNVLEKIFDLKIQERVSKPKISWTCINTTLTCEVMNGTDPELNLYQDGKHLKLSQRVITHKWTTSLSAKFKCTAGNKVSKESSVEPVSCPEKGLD

B1: Siplizumab (humanized anti-CD2 IgG1κ) (antibody, V domains shown)
VH: QVQLVQSGAEVQRPGASVKVSCKASGYIFTEYYMYWVRQAPGQGLELVGRIDPEDGSIDYVEKFKKKVTLTADTSSSTAYMELSSLTSDDTAVYYCARGKFNYRFAYWGQGTLVTVSS
VL: DVVMTQSPPSLLVTLGQPASISCRSSQSLLHSSGNTYLNWLLQRPGQSPQPLIYLVSKLESGVPDRFSGSGSGTDFTLKISGVEAEDVGVYYCMQFTHYPYTFGQGTKLEIK
notes: also called MEDI-507; anti-CD2 Ab1
B2: CD2-binding molecule 3 (FcS anti-CD2 IgG2) (antibody, V domains shown)
VH: QVQLVQSGAEVQRPGASVKVSCKASGYIFTEYYMYWVRQAPGQGLELVGRIDPEDGSIDYVEKFKKKVTLTADTSSSTAYMELSSLTSDDTAVYYCARGKFNYRFAYWGQGTLVTVSS
VL: DVVMTQSPPSLLVTLGQPASISCRSSQSLLHSSGNTYLNWLLQRPGQSPQPLIYLVSKLESGVPDRFSGSGSGTDFTLKISGVEAEDVGVYYCMQFTHYPYTFGQGTKLEIK
notes: Standard IgG2 framework with V234A, G237A, P238S, H268A, V309L, A330S, P331S; made in CHO-K1 cells
B3: CD2-binding molecule 4 (FcS anti-CD2 IgG4) (antibody, V domains shown)
VH: QVQLVQSGAEVQRPGASVKVSCKASGYIFTEYYMYWVRQAPGQGLELVGRIDPEDGSIDYVEKFKKKVTLTADTSSSTAYMELSSLTSDDTAVYYCARGKFNYRFAYWGQGTLVTVSS
VL: DVVMTQSPPSLLVTLGQPASISCRSSQSLLHSSGNTYLNWLLQRPGQSPQPLIYLVSKLESGVPDRFSGSGSGTDFTLKISGVEAEDVGVYYCMQFTHYPYTFGQGTKLEIK
notes: Standard IgG4 framework with S228P, L235E, P329G; made in CHO-K1 cells
B4: CD2-binding molecule 1 (a deglycosylated CD2-binding molecule) (antibody, V domains shown)
VH: QVQLVQSGAEVQRPGASVKVSCKASGYIFTEYYMYWVRQAPGQGLELVGRIDPEDGSIDYVEKFKKKVTLTADTSSSTAYMELSSLTSDDTAVYYCARGKFNYRFAYWGQGTLVTVSS
VL: DVVMTQSPPSLLVTLGQPASISCRSSQSLLHSSGNTYLNWLLQRPGQSPQPLIYLVSKLESGVPDRFSGSGSGTDFTLKISGVEAEDVGVYYCMQFTHYPYTFGQGTKLEIK
modifications: Fc N-glycan removed with EndoS2 (GlycINATOR)
notes: produced with GlycINATOR (EndoS2)
B5: CD2-binding molecule 2 (Fc-silent (FcS) anti-CD2 IgG1) (antibody, V domains shown)
VH: QVQLVQSGAEVQRPGASVKVSCKASGYIFTEYYMYWVRQAPGQGLELVGRIDPEDGSIDYVEKFKKKVTLTADTSSSTAYMELSSLTSDDTAVYYCARGKFNYRFAYWGQGTLVTVSS
VL: DVVMTQSPPSLLVTLGQPASISCRSSQSLLHSSGNTYLNWLLQRPGQSPQPLIYLVSKLESGVPDRFSGSGSGTDFTLKISGVEAEDVGVYYCMQFTHYPYTFGQGTKLEIK
notes: IgG1 with LALA-PG mutations at equivalent sites in siplizumab; made in CHO-K1 cells; also called Fc-silent Siplizumab

For this test, the target named is T1, Recombinant truncated human CD2. Put plainly: SPR (Biacore T200), IgG immobilised, CD2 injected. (Surface plasmon resonance follows binding to a sensor surface in real time, without labels.)
Take B1: the binding result is “binds”.
B2: the binding entry is “binds”.
As to B3, the binding result was “binds”.
The result for B4 reads “binds”; that for B5, “binds”.

Source of the values: patent publication US20240270845A1 (ZELARION MALTA, published 2024).
